In patent US20120214821A1, “Lipidomic Biomarkers of Diabetes” (THE BROAD INSTITUTE, INC., priority 2011, published 2012):
Where two headings read alike, the source gives them in different places.

Columns and labels:
[1] = system: plasma TAGs; conditions: 20 non-diabetic individuals, glipizide 5 mg, 60 and 120 minutes versus baseline (FIGS. 6A, 6B)
Description: (§1) Pharmacologic studies were performed as follows. […] After a washout period of 6 days, subjects received metformin 500 mg twice daily for two days in order to reduce hepatic gluconeogenesis, and then underwent a 75 g OGTT in the presence of metformin. […] From the first 164 subjects completing the protocol, 20 participants were selected who represented both high and low ends of the HOMA-IR range.
(§2) OGTT causes an acute rise in plasma glucose, which then triggers a rise in insulin.
(§3) After a washout period of 6 days, these 20 individuals were then administered four doses of metformin (500 mg) over two days. Although chronic metformin use decreases insulin resistance, its acute effect is to decrease hepatic glucose output, and as a result, lower plasma insulin (10).

[2] = 20 non-diabetic individuals, fasting, single oral dose glipizide 5 mg, baseline 95 mg/dL, p<0.0001 versus baseline
Description: as §1, §2, §3

Cc1cnc(C(=O)NCCc2ccc(S(=O)(=O)NC(=O)NC3CCCCC3)cc2)cn1 [glipizide]
TAG response (change of plasma TAGs by carbon number and double bond content) [1]: recapitulated the TAG response to OGTT | mean plasma glucose ([2]; 60 minutes): 79 mg/dL | mean plasma glucose ([2]; 120 minutes): 65 mg/dL
